Reference: patent publication US10588921B2, “Drug for the treatment of cholesterol accumulation disorders” (NATIONAL UNIVERSITY CORPORATION KUMAMOTO UNIVERSITY, priority 2013, dated 2020)

Tested on: NPC-derived HLCs
Assay: Microarray, cluster and PCA analysis of HLCs treated with HPCDs
Format: cell-based, human
Conditions: HLCs cultured with HPCD 4 days; FIG. 29

## 2-hydroxypropyl-γ-cyclodextrin [HPGCD]
  gene expression patterns of the altered molecular signature: closer to that of normal HLCs than those with HPBCD treatments
